Experimental findings from article PMC4225516 are described below.

Protein sequences, listed by entry. Tags and fused reporters are not part of them. Residues count along the entry.
UniProt P14211, residues 18-416: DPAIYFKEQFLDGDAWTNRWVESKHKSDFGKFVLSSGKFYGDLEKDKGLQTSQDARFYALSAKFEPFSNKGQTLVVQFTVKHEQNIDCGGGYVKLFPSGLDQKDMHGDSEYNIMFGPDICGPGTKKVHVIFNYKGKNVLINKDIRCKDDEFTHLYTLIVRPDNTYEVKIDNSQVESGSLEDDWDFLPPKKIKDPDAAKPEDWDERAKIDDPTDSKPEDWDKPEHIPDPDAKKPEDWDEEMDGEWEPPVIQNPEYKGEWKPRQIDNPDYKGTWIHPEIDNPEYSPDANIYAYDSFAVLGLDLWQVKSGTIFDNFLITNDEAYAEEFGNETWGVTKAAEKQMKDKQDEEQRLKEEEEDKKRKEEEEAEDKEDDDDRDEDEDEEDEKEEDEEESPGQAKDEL

Assay [1] concerns the target T1, mouse acrosome and sperm tail protein (MAST) (mouse (endogenous in testis)) (UniProt Q7TPM5).
T1 sequence: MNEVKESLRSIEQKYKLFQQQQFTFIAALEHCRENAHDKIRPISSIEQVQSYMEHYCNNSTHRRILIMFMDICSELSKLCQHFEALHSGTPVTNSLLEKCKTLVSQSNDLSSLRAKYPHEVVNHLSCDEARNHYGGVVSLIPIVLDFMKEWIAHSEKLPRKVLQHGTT
Briefly: co-IP; antibody cross-linked (DSS) to protein A/G plus agarose (Pierce cross link IP kit); pre-cleared mouse testis lysate, 1-2 h or overnight at 4°C; eluate probed by western blot.

Assay [2] addresses calreticulin (mouse (endogenous in testis)) (UniProt P14211). Described as above.

Results are given in words; binding and its absence hold for the method and conditions named. Binding seen in cells or lysates may run through a third protein. Some entries that bind do so weakly or less than the wild type.

With “calreticulin (from UniProt P14211 18-416)”, the binding result in assay [1] is listed as “binds”.

B1: mouse acrosome and sperm tail protein (MAST) (protein, UniProt Q7TPM5 1-168)
chain: T1 sequence
For the molecule B1, in assay [2], the binding entry is given as “binds”.
